# The list shows a part of the results.
# The chains behind the UniProt entries cited, without tags or fusion partners.
# UniProt Q0JBA9, entry or part of it: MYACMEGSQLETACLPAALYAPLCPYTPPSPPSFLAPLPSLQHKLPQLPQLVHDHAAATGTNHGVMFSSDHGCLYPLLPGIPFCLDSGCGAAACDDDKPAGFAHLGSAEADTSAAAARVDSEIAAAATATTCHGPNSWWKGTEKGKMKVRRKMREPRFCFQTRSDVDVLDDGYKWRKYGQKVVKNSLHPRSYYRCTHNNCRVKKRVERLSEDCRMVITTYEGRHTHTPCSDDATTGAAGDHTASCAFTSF
# Molecular target: OsWRKY34 (Oryza sativa, UniProt Q0JBA9 1-250)
# Experiment: protein-binding microarray (RPBM); PBS, 2% BSA, 51.3 ng/ul salmon testes DNA, 50 uM zinc acetate, 200 nM TF, 25 C, 1 h; high values mean tight binding
# Settings: protein: recombinant; tags: N-terminal polyhistidine and DsRed monomer fusion (pET32a); label: CyDye5-dUTP incorporated in the synthesized complementary strand; 3' TTTTT single-stranded linker to array surface; dsDNA, one strand shown
# Procedure, shortened: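 The binding signal is fluorescence intensity per array feature (arbitrary units). Readings came from an Axon 4000B scanner after a washed, 2% BSA-blocked, double-stranded custom Agilent array had been incubated for 1 h at 25 °C with 200 nM protein and 50 µM zinc acetate. The protein was a Ni–NTA-purified transcription factor fused N-terminally to polyhistidine and DsRed, expressed in E. coli BL21-CodonPlus.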
row,Sequence,binding signal
1,GCTCCCATCCGTACTACAGCATACGTGGCGGCATCTGTCCCGGAGTCACCTAGTGCAG,8240 fluorescence intensity (a.u.)
2,TTTCTTCCCTTAATTACATCACCGTTGGGCATAAAATAATCGGAGTCACCTAGTGCAG,9920 fluorescence intensity (a.u.)
3,AAAGACTCTCCCGGTTCTTCTACCGTTCTACGCCACCAAACGGAGTCACCTAGTGCAG,8310 fluorescence intensity (a.u.)
4,AAAGGTTAAACGTTTGTTAAAAGTCAACGCGTCATATATTCGGAGTCACCTAGTGCAG,10600 fluorescence intensity (a.u.)
5,GAACGCCGCCACCTACTCCCACTGCCACGTGGGCCCACATCGGAGTCACCTAGTGCAG,8330 fluorescence intensity (a.u.)
6,CGCCCCGTCATCGCCGCGGCCGGCCACCGTCACCGCCACCCGGAGTCACCTAGTGCAG,9140 fluorescence intensity (a.u.)
7,TCAAGGCACACTTCCTTTTGACTGAGTGTCCAGTTGTTGCCGGAGTCACCTAGTGCAG,8520 fluorescence intensity (a.u.)
8,TGGATTGGTGCTCGCTTTTTTTTTTCTCTCTCCTTTTTTCCGGAGTCACCTAGTGCAG,16300 fluorescence intensity (a.u.)
9,GCAACCAACACGCGCACCACCACCTCGTCGAGCGCTCGGCCGGAGTCACCTAGTGCAG,9600 fluorescence intensity (a.u.)
10,ATGTTAGTGGGCCCACATTTATGTTTTTTTAATTTTTATACGGAGTCACCTAGTGCAG,8180 fluorescence intensity (a.u.)
11,GCTGTGGCGGAGGTGGGGAGGTGGAGGTGGAGGGGAGATGCGGAGTCACCTAGTGCAG,24600 fluorescence intensity (a.u.)
12,TCACTTTTTTTTCCATTCATTGTATGATTTCTTCTATTATCGGAGTCACCTAGTGCAG,10900 fluorescence intensity (a.u.)
13,GAGGTTTTTTCTGACGGTTGTATCACAGGATCACACAGTACGGAGTCACCTAGTGCAG,11700 fluorescence intensity (a.u.)
14,GGAGCTATTATTATTATTATATTATATTTTGAATGCTTTGCGGAGTCACCTAGTGCAG,8050 fluorescence intensity (a.u.)
15,GGACGAGCGCGCGAGAATAATTGTGGTGTGCTTTGACCGGCGGAGTCACCTAGTGCAG,8300 fluorescence intensity (a.u.)
16,GATATTTTGCTTGCTATGTTTGACTATTCGTCTTATTTTACGGAGTCACCTAGTGCAG,13500 fluorescence intensity (a.u.)
17,CTGACCACCAACAGGGTCACTGTCGCGTTTGCTCGATACTCGGAGTCACCTAGTGCAG,9920 fluorescence intensity (a.u.)
18,AGAATTATGTGTTTTTTATACCTTTATTTTTTTCGATCCTCGGAGTCACCTAGTGCAG,9800 fluorescence intensity (a.u.)
19,CCTCCTTTTTTGCTCTTTATTCCTTTGCCTACTTGCTGCTCGGAGTCACCTAGTGCAG,13400 fluorescence intensity (a.u.)
20,CCAATTCTATCATACACACTATTCATTTCATTCTTTTTTTCGGAGTCACCTAGTGCAG,11000 fluorescence intensity (a.u.)
21,ATATTTCTCAACACACGACTAGCAATTGGTTGTGTTTGACCGGAGTCACCTAGTGCAG,8210 fluorescence intensity (a.u.)

row,Sequence,binding signal
1,GCCGCGTTCGCTTTCATGGTTTCCTGTACTACTAATACTACGGAGTCACCTAGTGCAG,10400 fluorescence intensity (a.u.)
2,GCAAAGCTAGTGAAAAGTCCAAAATAAAACACCGGTAGTTCGGAGTCACCTAGTGCAG,10800 fluorescence intensity (a.u.)
3,CAGTTTTCGTTAGTGTTTTGTTTGGTTTGGTTCGTGCTGTCGGAGTCACCTAGTGCAG,13100 fluorescence intensity (a.u.)
4,GCGATGGGAGGTGGGCGACGCGAGGGAGAGGGGAGAGGGGCGGAGTCACCTAGTGCAG,18500 fluorescence intensity (a.u.)
5,CCTCTTTCCTTCTTCTCTTCCCGTTGACTCCGCAGTTGCCCGGAGTCACCTAGTGCAG,9160 fluorescence intensity (a.u.)
6,TTATATTTTGGGACGGAGTATTACTTTGAATCCCTTTTCCCGGAGTCACCTAGTGCAG,8280 fluorescence intensity (a.u.)
7,GTCTCCATCTCTTTTACCTCAGTCTCGCGTATATCTTAGTCGGAGTCACCTAGTGCAG,12800 fluorescence intensity (a.u.)
8,ATACCCTTGAATTGAGTTGGCCCACCCCTGCCCATGACCACGGAGTCACCTAGTGCAG,8380 fluorescence intensity (a.u.)
9,CGCGTCGTGCTCGTCTCTCTTTGCTTCTTCCAGCTCCAGACGGAGTCACCTAGTGCAG,9520 fluorescence intensity (a.u.)
10,TCTTTCTCTTTCTACACCATGGCTTTTCGCTTTCATTTAGCGGAGTCACCTAGTGCAG,10500 fluorescence intensity (a.u.)
11,GGTCGGCGGGAGGGCGGGAGAGGAGCAGCGGCGCACGGGGCGGAGTCACCTAGTGCAG,12400 fluorescence intensity (a.u.)
12,CGCCTGTTTGGACACCTATATACCAGAGTCGTGGGGCTTGCGGAGTCACCTAGTGCAG,8590 fluorescence intensity (a.u.)
13,CTTTTTTCTCTGCGGGTTCTTCAATTATTCAGGGTTTCTTCGGAGTCACCTAGTGCAG,16800 fluorescence intensity (a.u.)
14,TTTCTATTTGACTATTTATATTCCAAATTAGTCATTTATCCGGAGTCACCTAGTGCAG,9460 fluorescence intensity (a.u.)
15,AACGATATTGTCTATGCATATTGCTTCCTTTGTCCTTACTCGGAGTCACCTAGTGCAG,10400 fluorescence intensity (a.u.)
16,CTAGGTCTGTCCTTATGTCAGTATGTGTGTCTGGATTATTCGGAGTCACCTAGTGCAG,9600 fluorescence intensity (a.u.)
17,AATTTTGTCGGGGCCGATTATAGTTGACTACTAGCACATACGGAGTCACCTAGTGCAG,9570 fluorescence intensity (a.u.)
18,AGCGAGGAAGGAGGAGGTGGGGAAGAGTAGTTCATAGATCCGGAGTCACCTAGTGCAG,8240 fluorescence intensity (a.u.)
19,AGTCAAAAGTCGAATTTTGCCTGACATGTTTCTTTACATACGGAGTCACCTAGTGCAG,9490 fluorescence intensity (a.u.)
20,TTTCTTGCGCCATTTCCCACCGCCGCCGCCGCCGCCCGCGCGGAGTCACCTAGTGCAG,9500 fluorescence intensity (a.u.)
21,TTCACAATGTAAGCCATTCTAGCATTTTCCATATTTATATCGGAGTCACCTAGTGCAG,8240 fluorescence intensity (a.u.)

row,Sequence,binding signal
1,CCTTGGTGCCATTTTCTGCAGTATGTCATGCAATCTTTGTCGGAGTCACCTAGTGCAG,9260 fluorescence intensity (a.u.)
2,CAAGCGATCGATCGTCCACACGCACGGCCGCACCGCATCGCGGAGTCACCTAGTGCAG,8380 fluorescence intensity (a.u.)
3,TTTTTCTGTTAGATGATTTTTTTTTCCTGGACAATTATCTCGGAGTCACCTAGTGCAG,8220 fluorescence intensity (a.u.)
4,CATCATCACTCCCTCGTCGCTGTCGTTGTTGTCATCGTTCCGGAGTCACCTAGTGCAG,10400 fluorescence intensity (a.u.)
5,CTGTATTTTCCTAATCATAATTTTTTAGGCTCCTTATTGTCGGAGTCACCTAGTGCAG,8240 fluorescence intensity (a.u.)
6,TGTACACGCAGCATCCTACATGTCTTCTTCCTCTGTCCGTCGGAGTCACCTAGTGCAG,8230 fluorescence intensity (a.u.)
7,TAAATGTAGTTTGACTTTTTTGTTTACTGCATACTGTTGACGGAGTCACCTAGTGCAG,14300 fluorescence intensity (a.u.)
8,GGTGGCGGCGGGGTTGGTCCACTCGAAGAGCTCGGCGGTGCGGAGTCACCTAGTGCAG,13400 fluorescence intensity (a.u.)
9,TTGCCCATCTCGTCGTCTTCATCGCCGTTCGAGCTTCAACCGGAGTCACCTAGTGCAG,12900 fluorescence intensity (a.u.)
10,TGCACCAACGGTCAACTGAAACATTTGACCGTCCTATTTTCGGAGTCACCTAGTGCAG,11600 fluorescence intensity (a.u.)
11,GGGCTCATCTTCACCGTTGTCATTCAGTTATTCACATAAGCGGAGTCACCTAGTGCAG,10300 fluorescence intensity (a.u.)
12,CAACCGCCTCCGCGCGCGGCCCGTCGCCATCGTCGAGCACCGGAGTCACCTAGTGCAG,10300 fluorescence intensity (a.u.)
13,AACCATTCTATTCCACTACAAATCATCGGCCAAAATTACCCGGAGTCACCTAGTGCAG,8300 fluorescence intensity (a.u.)
14,GCAGTCCACCACTTGGCCCGTCACTCTCGAAAATGCTGAGCGGAGTCACCTAGTGCAG,12100 fluorescence intensity (a.u.)
15,GAAGCTGTTCTCCATCTTCTCCTCGTCGTCGTCCTCGTCGCGGAGTCACCTAGTGCAG,8220 fluorescence intensity (a.u.)
16,GTTGAGGGACCCGCTGGATCTGGTTTTTGATTGAAGGATACGGAGTCACCTAGTGCAG,8800 fluorescence intensity (a.u.)
17,TAATTATTAATTCTTTTCCTATCATTTGATTCATTGTTAACGGAGTCACCTAGTGCAG,8280 fluorescence intensity (a.u.)
18,AAAGCCTATAACATTATTACTATGTTCATTTATCTACAATCGGAGTCACCTAGTGCAG,8270 fluorescence intensity (a.u.)
19,CCGCCCGATCCACCCAAGAACTGCCGATTTCGCCGGCTCGCGGAGTCACCTAGTGCAG,8440 fluorescence intensity (a.u.)
20,CCACCGCCACCTCCATGCCCAAGCATCGCATCAAGCCGCTCGGAGTCACCTAGTGCAG,9970 fluorescence intensity (a.u.)
21,ATGAAGCCATCTTTGTCCAAACATCTTTTTTTCTGTCGCGCGGAGTCACCTAGTGCAG,11200 fluorescence intensity (a.u.)

row,Sequence,binding signal
1,CCGTTTCATATTTAAATTGTTTTGACTTTTTTATAGTTAACGGAGTCACCTAGTGCAG,8140 fluorescence intensity (a.u.)
2,TTTCCACAGCTGCCGGCTTACTTCTACTTCCTTGTCTTCTCGGAGTCACCTAGTGCAG,9570 fluorescence intensity (a.u.)
3,ACGTACTGCCCAACCCTCGCCGCGGTATCGTAACTCGTAACGGAGTCACCTAGTGCAG,9600 fluorescence intensity (a.u.)
4,GCGAGCACACACATTTTCCTACATGGACACCTTGATGTCCCGGAGTCACCTAGTGCAG,8080 fluorescence intensity (a.u.)
5,GAGGTACTTGATTCATTACTATGTTTTCTTTTTGTTCTTTCGGAGTCACCTAGTGCAG,8800 fluorescence intensity (a.u.)
6,TATTTATTCTTTTCATATGATCTGATTCATTGTTAAATATCGGAGTCACCTAGTGCAG,8720 fluorescence intensity (a.u.)
7,TACACACAGACACACTACTCTGCCTTTCTACACATACACCCGGAGTCACCTAGTGCAG,13600 fluorescence intensity (a.u.)
8,TCTCTTAATTGATGTACATATTTGTTATTAACATGTGGACCGGAGTCACCTAGTGCAG,9010 fluorescence intensity (a.u.)
9,CTTCTCCGGCCGCCTCGAGCGCCAGTTCTCCAGCCTCCGCCGGAGTCACCTAGTGCAG,9360 fluorescence intensity (a.u.)
10,CGAGAAGGTTCCACACACACACACGGCCACCCGCATCCGCCGGAGTCACCTAGTGCAG,8530 fluorescence intensity (a.u.)
11,ATGTCCATATTTATTTTATTGTGACGTGTCCAGATTTATTCGGAGTCACCTAGTGCAG,8770 fluorescence intensity (a.u.)
12,TTTTGTTCTGCATTCTTTGTTAATGGTATCGTATTTTTTCCGGAGTCACCTAGTGCAG,12700 fluorescence intensity (a.u.)
13,ACTCTTGCCATTTCTACTATAAGTGTTTGTTTTGATGGTACGGAGTCACCTAGTGCAG,9710 fluorescence intensity (a.u.)
14,CAAAGCAGCAGCCATCACCAGATAACCCCGCCCGCATGCCCGGAGTCACCTAGTGCAG,10100 fluorescence intensity (a.u.)
15,TTGTTGCGGTTGATTTTTTGTATTTGGTGTTGCTTTGATGCGGAGTCACCTAGTGCAG,10900 fluorescence intensity (a.u.)
16,AGTGACCCTTTTTATATCTTCTGTCGGCAGTTTTGTAGTTCGGAGTCACCTAGTGCAG,13800 fluorescence intensity (a.u.)
17,AACCGAACCCACTCACCCAACCAACCGCAGAGCGAGAGCCCGGAGTCACCTAGTGCAG,8060 fluorescence intensity (a.u.)
18,GTTTTATAATGTAAGTCATTTTAGCATTTCCCACATTCATCGGAGTCACCTAGTGCAG,8490 fluorescence intensity (a.u.)
19,TCATAACTTTATCTCTCTCATTTTTCGGCCACACGCTCAACGGAGTCACCTAGTGCAG,9690 fluorescence intensity (a.u.)
20,ATCATGTATATCATTGTATTGTTTTGTGTTTCTCCTCTAGCGGAGTCACCTAGTGCAG,11900 fluorescence intensity (a.u.)
21,CGCCGCCATTGATCTGGTTTTGGTTTTGTGAGGAGGAGAACGGAGTCACCTAGTGCAG,13000 fluorescence intensity (a.u.)

# Retrieved one by one from above:
row,Sequence,binding signal
17,TAATTATTAATTCTTTTCCTATCATTTGATTCATTGTTAACGGAGTCACCTAGTGCAG,8280 fluorescence intensity (a.u.)
4,CATCATCACTCCCTCGTCGCTGTCGTTGTTGTCATCGTTCCGGAGTCACCTAGTGCAG,10400 fluorescence intensity (a.u.)
8,ATACCCTTGAATTGAGTTGGCCCACCCCTGCCCATGACCACGGAGTCACCTAGTGCAG,8380 fluorescence intensity (a.u.)
20,CCAATTCTATCATACACACTATTCATTTCATTCTTTTTTTCGGAGTCACCTAGTGCAG,11000 fluorescence intensity (a.u.)
2,TTTCTTCCCTTAATTACATCACCGTTGGGCATAAAATAATCGGAGTCACCTAGTGCAG,9920 fluorescence intensity (a.u.)
